Reference: patent publication US12521448B2, “Preparation of solid cyclodextrin complexes for ophthalmic active pharmaceutical ingredient delivery” (Oculis Operations Sarl, priority 2016, dated 2026)
At least one compound was matched to its structure with a doubt left.

Assay: Phase-solubility of dexamethasone and γ-cyclodextrin in aqueous eye drops (FIG. 2)
Format: physicochemical
Settings: γCD concentrations above 3% (w/v) in aqueous eye drop medium

## C[C@@H]1C[C@H]2[C@@H]3CCC4=CC(=O)C=C[C@]4(C)[C@@]3(F)[C@@H](O)C[C@]2(C)[C@@]1(O)C(=O)CO [dexamethasone]
  amount of drug dissolved in solution: constant
